Results: paper PMC11372125
These are yes or no findings as the source states them, for the method shown. In cells and extracts the contact can be indirect. Sequences can lack the tags named with a protein.

Chains of the proteins cited; added tags and fusions are not shown.
UniProt Q93008: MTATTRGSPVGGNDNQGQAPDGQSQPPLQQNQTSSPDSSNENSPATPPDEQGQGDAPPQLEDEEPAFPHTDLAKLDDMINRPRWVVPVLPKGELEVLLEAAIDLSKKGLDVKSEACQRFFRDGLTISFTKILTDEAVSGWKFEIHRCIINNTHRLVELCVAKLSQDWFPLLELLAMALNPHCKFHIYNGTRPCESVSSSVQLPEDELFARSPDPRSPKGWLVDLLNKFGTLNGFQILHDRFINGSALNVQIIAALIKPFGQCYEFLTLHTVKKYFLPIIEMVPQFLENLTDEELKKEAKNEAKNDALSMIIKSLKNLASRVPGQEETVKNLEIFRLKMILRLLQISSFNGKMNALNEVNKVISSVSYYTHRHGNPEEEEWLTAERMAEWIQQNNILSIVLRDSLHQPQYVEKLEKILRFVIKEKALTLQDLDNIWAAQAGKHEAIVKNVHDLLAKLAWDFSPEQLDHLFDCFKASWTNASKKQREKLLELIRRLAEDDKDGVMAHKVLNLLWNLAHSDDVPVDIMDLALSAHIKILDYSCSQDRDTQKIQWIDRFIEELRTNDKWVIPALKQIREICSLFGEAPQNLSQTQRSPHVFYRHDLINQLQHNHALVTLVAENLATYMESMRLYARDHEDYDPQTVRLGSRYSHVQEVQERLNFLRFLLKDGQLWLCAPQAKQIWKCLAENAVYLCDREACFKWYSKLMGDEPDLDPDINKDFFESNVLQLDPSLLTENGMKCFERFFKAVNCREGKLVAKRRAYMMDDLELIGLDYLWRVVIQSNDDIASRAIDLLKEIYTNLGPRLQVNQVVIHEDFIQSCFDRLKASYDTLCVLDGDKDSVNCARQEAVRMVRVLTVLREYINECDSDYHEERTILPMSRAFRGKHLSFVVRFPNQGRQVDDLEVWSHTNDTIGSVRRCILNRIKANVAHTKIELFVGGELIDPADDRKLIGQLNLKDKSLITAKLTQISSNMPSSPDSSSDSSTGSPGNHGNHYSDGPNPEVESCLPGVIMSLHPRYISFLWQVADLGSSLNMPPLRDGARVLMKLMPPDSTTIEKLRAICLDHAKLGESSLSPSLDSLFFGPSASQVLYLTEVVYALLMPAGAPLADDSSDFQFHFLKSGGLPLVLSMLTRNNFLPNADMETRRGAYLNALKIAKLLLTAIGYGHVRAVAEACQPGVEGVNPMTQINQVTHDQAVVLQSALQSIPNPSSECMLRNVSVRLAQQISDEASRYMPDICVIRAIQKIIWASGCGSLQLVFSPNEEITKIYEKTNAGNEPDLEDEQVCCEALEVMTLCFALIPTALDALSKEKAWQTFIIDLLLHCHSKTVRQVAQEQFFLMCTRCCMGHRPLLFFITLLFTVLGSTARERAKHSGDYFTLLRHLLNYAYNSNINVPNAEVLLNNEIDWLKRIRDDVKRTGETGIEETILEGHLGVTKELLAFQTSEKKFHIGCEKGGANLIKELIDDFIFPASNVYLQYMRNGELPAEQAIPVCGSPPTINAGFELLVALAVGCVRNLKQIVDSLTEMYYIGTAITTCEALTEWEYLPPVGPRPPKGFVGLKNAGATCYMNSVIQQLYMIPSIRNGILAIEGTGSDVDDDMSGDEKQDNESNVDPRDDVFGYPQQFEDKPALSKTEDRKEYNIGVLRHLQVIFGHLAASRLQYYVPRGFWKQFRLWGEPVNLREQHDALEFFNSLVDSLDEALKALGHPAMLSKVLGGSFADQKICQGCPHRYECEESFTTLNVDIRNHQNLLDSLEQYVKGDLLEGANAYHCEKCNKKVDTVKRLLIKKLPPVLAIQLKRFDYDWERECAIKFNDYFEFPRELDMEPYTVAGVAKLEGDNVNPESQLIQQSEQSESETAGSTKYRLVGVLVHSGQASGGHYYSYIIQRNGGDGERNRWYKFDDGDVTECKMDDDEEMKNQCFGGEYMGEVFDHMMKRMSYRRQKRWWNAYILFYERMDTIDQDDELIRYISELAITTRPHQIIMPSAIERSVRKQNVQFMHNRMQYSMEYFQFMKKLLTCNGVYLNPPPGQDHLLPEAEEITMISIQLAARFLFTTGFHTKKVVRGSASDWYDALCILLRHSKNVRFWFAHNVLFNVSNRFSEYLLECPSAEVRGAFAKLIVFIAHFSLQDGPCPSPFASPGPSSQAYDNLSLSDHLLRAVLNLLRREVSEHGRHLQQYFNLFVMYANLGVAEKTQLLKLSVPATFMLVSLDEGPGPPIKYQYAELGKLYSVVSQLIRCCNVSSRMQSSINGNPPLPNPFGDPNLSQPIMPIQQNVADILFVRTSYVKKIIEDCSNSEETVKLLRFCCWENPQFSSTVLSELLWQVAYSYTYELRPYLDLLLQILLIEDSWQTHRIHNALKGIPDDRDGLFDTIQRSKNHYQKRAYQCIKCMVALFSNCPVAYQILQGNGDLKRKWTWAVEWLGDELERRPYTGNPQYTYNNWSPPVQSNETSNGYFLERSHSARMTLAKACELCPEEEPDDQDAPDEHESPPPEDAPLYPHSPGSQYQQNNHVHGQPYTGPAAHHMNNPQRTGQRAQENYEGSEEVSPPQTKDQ

Biological target: T1, FLAG-IRS4 (UniProt O14654)
T1 sequence: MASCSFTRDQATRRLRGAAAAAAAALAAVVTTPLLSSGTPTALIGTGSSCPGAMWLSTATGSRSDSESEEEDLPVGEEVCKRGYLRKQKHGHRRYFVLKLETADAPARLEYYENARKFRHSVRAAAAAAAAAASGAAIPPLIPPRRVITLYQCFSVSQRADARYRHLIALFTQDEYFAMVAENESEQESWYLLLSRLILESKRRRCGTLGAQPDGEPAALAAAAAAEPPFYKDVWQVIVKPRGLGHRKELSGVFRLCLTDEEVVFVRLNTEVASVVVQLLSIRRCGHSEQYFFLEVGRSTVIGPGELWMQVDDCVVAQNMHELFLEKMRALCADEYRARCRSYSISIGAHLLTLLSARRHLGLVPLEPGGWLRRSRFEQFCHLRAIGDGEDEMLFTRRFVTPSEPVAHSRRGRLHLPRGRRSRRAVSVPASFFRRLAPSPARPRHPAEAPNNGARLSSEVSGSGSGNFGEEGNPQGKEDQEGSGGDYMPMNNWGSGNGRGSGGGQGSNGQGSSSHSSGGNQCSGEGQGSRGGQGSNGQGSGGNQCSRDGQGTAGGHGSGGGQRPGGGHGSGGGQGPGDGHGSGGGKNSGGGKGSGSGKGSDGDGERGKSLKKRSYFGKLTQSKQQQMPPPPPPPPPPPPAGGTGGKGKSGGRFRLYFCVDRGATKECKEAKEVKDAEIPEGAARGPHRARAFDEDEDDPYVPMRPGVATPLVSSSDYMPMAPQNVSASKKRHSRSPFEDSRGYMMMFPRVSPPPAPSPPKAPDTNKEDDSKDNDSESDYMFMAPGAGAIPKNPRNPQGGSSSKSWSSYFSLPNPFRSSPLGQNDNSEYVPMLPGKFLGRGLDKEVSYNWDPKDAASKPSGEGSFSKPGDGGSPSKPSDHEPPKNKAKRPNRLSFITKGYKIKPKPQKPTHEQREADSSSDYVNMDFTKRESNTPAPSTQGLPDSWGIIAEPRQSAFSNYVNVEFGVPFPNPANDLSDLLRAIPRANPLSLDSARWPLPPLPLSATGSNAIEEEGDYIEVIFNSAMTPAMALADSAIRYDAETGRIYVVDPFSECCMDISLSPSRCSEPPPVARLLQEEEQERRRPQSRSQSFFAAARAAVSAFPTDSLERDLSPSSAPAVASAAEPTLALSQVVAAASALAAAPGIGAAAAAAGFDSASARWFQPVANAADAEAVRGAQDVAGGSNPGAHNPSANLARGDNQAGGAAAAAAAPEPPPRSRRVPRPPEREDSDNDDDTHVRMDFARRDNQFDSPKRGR
Assay: co-IP; HEK293T cells transfected with tagged plasmids (with or without MYC-PILRB and HA-Ub); lysates immunoprecipitated with anti-FLAG-M2 agarose 4-6 h at 4 °C, western blot

## V5-USP9X (from UniProt Q93008 1-2554) (enzyme)
  binding: no binding
